Literature values as cited in patent US8314084B2, “Device and methods for sequential, regional delivery of multiple cytotoxic agents and directed assembly of wound repair tissues” (priority 2002, dated 2012).

For CC(=O)O[C@H]1C(=O)[C@@]2(C)[C@H]([C@H](OC(=O)c3ccccc3)[C@]3(O)C[C@H](OC(=O)[C@H](O)[C@@H](NC(=O)c4ccccc4)c4ccccc4)C(C)=C1C3(C)C)[C@]1(OC(C)=O)CO[C@@H]1C[C@@H]2O [paclitaxel, Paclitaxel], which aqueous solubility is on record?
Its aqueous solubility is “poor aqueous solubility”.
